Consider 52 molecules from PubChem BioAssay AID485349 (National Center for Advancing Translational Sciences (NCATS), 2010).

The whole screen tested about 320,000 compounds, of which about 620 (0.19%) were called active. Calls come from the whole dose curve; as a rule, active = well fitted activation curve with a large enough effect; inconclusive = small, poorly fitted or top-dose-only effect; inactive = no such curve, though single readings can be large or run the other way. This is a selection; strong and weak results do not stand in their true shares. Entries without a call were filed so in the source.
Potency is the fitted concentration of half-maximal effect.

This test can be described thus: qHTS Assay for Identifying a Potential Treatment of Ataxia-Telangiectasia. For activation: % of control where 0% means no effect. Note: nearly all actives have a fitted effect of over 45% in size. As to conditions: […] A-T fibroblasts, KAP-1 phosphorylation AlphaLISA, neocarzinostatin DNA damage 30 min before lysis; activation: at 57.5 µM (top of the series). From the text: NIH Chemical Genomics Center [NCGC] NIH Molecular Libraries Probe Centers Network [MLPCN] MLPCN Grant: MH089030-01 Assay Submitter (PI): Wei Zheng and Yosef Shiloh Ataxia-telangiectasia (A-T) is a devastating and progressive disease for which, there is no cure. Although A-T is a multisystem disease, it is stereotyped characterized by its neurological symptoms such as truncal ataxia, due to cerebellar cortical degeneration of the Purkinje and granule cells. Other symptoms of A-T are telangiectasias (dilated blood vessels), primary immunodeficiency, marked sensitivity to ionizing radiation (IR), chromosomal instability and predisposition to cancer. The underlying genetic cause of A-T is null mutations in the ATM (A-T mutated) gene. ATM is a nuclear serine/threonine kinase that functions as a master regulator of the cellular responses to double strand breaks (DSBs) in the DNA. Upon activation by DSBs, ATM phosphorylates a plethora of down stream targets, including KAP-1 on […]. KAP-1 phosphorylation occurs shortly in response to DSBs and mediates global chromatin relaxation, which facilitates DSB repair. To screen for small molecules that will compensate for the loss of ATM in cells derived from A-T patients, we monitored KAP-1 phosphorylation as a readout for ATM-like activity using an AlphaLISA assay.
qHTS Assay Protocol: Step,Parameter,Value,Description 1. Cell Plating, 3 ul, 500 cells/well in OPTI-MEM, 1% FBS, 1% Pen/Strep 2. Incubation, 16-24 hr, 37C, 5% CO2, 95% humidity 3. Library compounds, 23 nl, 76.7 - 0.61uM dilution series final concentration 4. Incubation, 60 min, 37C, 5% CO2, 95% humidity 5. Reagent, 1 ul, 1600 ng/ml NCS in PBS + 0.05% BSA + 0.005% Tween 20 6. Incubation, 30 min, 37C, 5% CO2, 95% humidity 7. Reagent, 1 ul, Premixed detection reagents and lysis buffer 8. Reagent, 1 ul, 0.6% Antifoam A 9. Incubation, 6 hr, 25C, 95% humidity 10. Readout, EnVision, EnVision plate reader. AlphaScreen 1536-well protocol Cells were plated using medium-binding white solid-bottom tissue culture treated Kalypsys plates. Multidrop dispense of 3 uL of […] (hTERT immortalized A-T patient fibroblast cells). Detection reagent and lysis buffer was 3.75nM Rab-a-pKAP1 antibody bound to 75 ng/ul AlphaScreen SA donor bead, 3.75 nM Biot-M-a-KAP1 antibody bound to AlphaLISA protein A acceptor bead, 0.5x protease inhibitor cocktail and 0.25x PerkinElmer lysis buffer. EnVision protocol for 1536-well AlphaScreen read (30ms excitation, 100ms read), about 10 min/plate.
On the technique in general: In qHTS, concentration-response curves come from the screen itself.
`CCOC(=O)N1C(=O)[C@](c2ccc(Cl)cc2)(C(C)C)N1C(=O)OCC`: the “activation” value was inactive: 26.3%.

As for `COC(=O)c1cccc2c1-c1ccccc1/C2=N\NC(N)=O`, the activation was found to be 73.3%.

For `COc1ccc(CCNC(=O)C2CCN(S(=O)(=O)c3ccc(OC)c(OC)c3)CC2)cc1OC`, the activation was 66.7%.

As to `O=C(Nc1ccc([N+](=O)[O-])cc1)c1cc2ccccc2nc1Cl`, the activation was -27.3%.

Turning to `O=C(c1nn2c(C(F)(F)F)cc(-c3ccc(F)cc3)nc2c1Cl)N1CCOCC1`, the activation came out at 2.8%.

Consider `COc1cccc(CN(C)CC(=O)NCc2ccc(F)cc2)c1OC`, for which the activation was determined as 106%.

With `CCOC(=O)c1cnc2c(C)c(Cl)ccc2c1NCCCN1CCOCC1`, the “activation” value is inactive: -36.3%.

Consider `O=C(O)c1cc(-c2ccco2)nc2ccc(Br)cc12`, for which the “activation” value was inactive: -5.8%.

For `Cc1nc(Nc2ccc(Cl)cc2)c2oc3ccccc3c2n1`, the activation was 88.2%.

On to `C[C@@H](NC(=O)OC(C)(C)C)C(=O)NCC1CCC(C(=O)N[C@@H](Cc2ccccc2)C(=O)O)CC1` (some centres not stated), for which the “activation” value is inactive: 8.48%.

In the case of `CC(C)NC(=O)c1ccc(COc2ccc(C(C)(C)C)cc2)o1`, the activation stood at 56.8%.

`Cc1ccccc1OCC(=O)Nc1cccc(C(=O)O)c1`: the activation was found to be 149%.

On to `O=C(c1ccc(F)cc1)c1ccc(N2CCCCC2)cc1`, for which the activation was 60.9%.

For `Cc1cc(/C=C(/C#N)C(=O)O)c(C)n1CCC(C)C`, the “activation” value was inactive: -2.35%.

Consider `Cc1cc(C(=O)N2CCN(S(C)(=O)=O)CC2)sc1-c1ccccc1`, for which the “activation” value was inactive: 4.51%.

In the case of `O=C(c1ccccc1)c1coc2ccc(O)c(Cl)c12`, the “activation” value was inactive: -9.83%.

As for `O=c1c(-c2ccc(Cl)cc2)c[nH]n1-c1ccccc1`, the activation came out at 60%.

For `COc1ccc(NC(=O)C2CC2)cc1OC1CCCC1`, the activation came to 69.1%.

As to `COc1ccc(Cl)cc1NC(=O)CN(C)C(=O)c1sccc1-c1ccccc1`, the “activation” value is inactive: -8.21%.

As for `Cc1ccc(C(=O)NCCc2c[nH]c3ccccc23)c(C)c1`, the Potency was active: 25.1 µM.

Consider `COc1cccc(C2C(C(N)=O)=C(C)Nc3nc(CCCO)nn32)c1` (configuration not stated), for which the activation came to 143%.

As to `CNC(=O)c1ccc(-c2cc3onc(-c4ccccc4)c3c(=O)n2C)cc1`, the activation turned out to be 0.653%.

Turning to `C[C@@H]1Cc2c(O)c(O)cc(O)c2C(=O)O1`, the activation is -59.5%.

`CC(C)(C)NC(=O)c1cccc2c1-c1ccccc1C2=O`: the activation came out at 68.6%.

`CNC(=O)Cc1csc2ccc(C)cc12`: the activation came out at 64%.

`O=C(NC1CCS(=O)(=O)C1)/C(=C/c1ccco1)NC(=O)c1ccccc1` (configuration not stated): the “activation” value is inactive: 8.41%.

Regarding `CCOC(=O)Cn1c(-c2ccccc2)cc(SC)c(C#N)c1=O`, the activation came out at 80%.

With `CC(Oc1ccccc1)C(=O)Nc1cccc(NC(=O)c2ccco2)c1` (configuration not stated), the activation turned out to be 82.8%.

For `COc1ccc(Nc2cc3n(c(=O)n2)CCc2cc(OC)c(OC)cc2-3)cc1`, the activation amounted to 70.7%.

With `CCOc1ccc(NC2=CC(=O)CCC2)cc1`, the activation stood at 54.5%.

For the molecule `CCCc1cc(C(=O)Nc2ccccc2SC)no1`, the Potency is active: 39.8 µM.

Turning to `O=C(Nc1ccc(F)cc1)N(CCCN1CCOCC1)Cc1cc2cc3c(cc2[nH]c1=O)OCCO3`, the Potency was active: 14.1 µM.

Take `O=C(c1cccc(F)c1)N1CCCC(C(=O)N2CCCCCC2)C1` (configuration not stated): the activation worked out at 81.4%.

In the case of `CCOc1ccc(C(=O)NC(=S)Nc2cccnc2)cc1[N+](=O)[O-]`, the activation is 105%.

On to `CN(C)C(=O)CCc1ccc2c3c([nH]c2c1)[C@]1(CCC2CCCC2)[C@@H](C(=O)N2CCOCC2)C[C@H](CC(=O)NCC24CC5CC(CC(C5)C2)C4)C(=O)N1CC3`, for which the “activation” value was inactive: -43.6%.

As to `COc1ccccc1NC(=O)C1CCCN(S(=O)(=O)c2ccc(-n3cnnn3)cc2)C1` (configuration not stated), the activation was found to be 263%.

For `O=C(CSc1ccccn1)N/N=C/C=C/c1ccccc1`, the activation came to 19.3%.

On to `OC(COC(c1ccc(F)cc1)c1ccc(F)cc1)CN1CCCC1` (configuration not stated), for which the activation was found to be 70.6%.

As to `COc1ccc(N2CCN(C(=O)c3cc4cc(Cl)ccc4[nH]3)CC2)cc1`, the activation is 98.5%.

As to `OC(CN1CCCCC1)Cn1c2ccc(Cl)cc2c2cc(Cl)ccc21` (configuration not stated), the activation is 62.9%.

For the molecule `CCOC(=O)c1c(CSc2ccsc2)n(C)c2cc(Br)c(O)c(CN(C)C)c12`, the Potency was active: 8.91 µM.

With `CS(=O)(=O)c1ccc(-c2csc(-c3cccnc3)n2)cc1`, the activation is 52.6%.

Regarding `COc1ccccc1C1CCN(C(=O)c2ccc(Cl)cc2)CC1`, the activation stood at 120%.

For `O=C(NCc1nc2ccccc2[nH]1)C1=C[C@H](c2ccccc2)C[C@H](OCCCCO)O1`, the Potency is active: 39.8 µM.

With `Fc1cccc(Cl)c1/C=C/c1cnc2ccccc2n1`, the activation was 57.9%.

As to `CC1(C)CC2(CCO1)OC(=O)CC2C(=O)Nc1c(Cl)cccc1Cl` (configuration not stated), the activation turned out to be 66.7%.

As for `CCn1c2c(c3cc(OCC(C)C)ccc31)CCCC2=O`, the Potency is active: 31.6 µM.

Turning to `Fc1ccc(C2N(c3ccccc3)C(=S)N3CCCN23)cc1` (configuration not stated), the activation amounted to 77%.

`COc1ccc(N=Nc2ccc(O)c3ncccc23)cc1`: the “activation” value was inactive: -81.8%.

On to `CCc1nnc2n1N=C(c1cccc([N+](=O)[O-])c1)CS2`, for which the activation was 84.2%.

As for `CC(=O)Nc1ccc(NC2=CC(=O)c3ccccc3C2=O)cc1`, the activation worked out at 97.1%.

Regarding `COc1ccc(N(C)S(=O)(=O)c2cccc(C(=O)OCC(=O)NCc3ccccc3OC)c2)cc1`, the activation worked out at 81.8%.
